Positions count from the first letter of the chain named. No constants are given. Whether binding was seen depends on the method and setting. In cells and extracts the contact can be indirect. Some results given as binding are weak or reduced against the parent protein; the word gives no strength. For some assays here: Tags and fused reporters may be left off the sequences shown. Values belong to the molecule of their own block, whether it stands above or below them.
What was measured:
HA-YEATS2-T604A = biological target: T1, HA-YEATS2-T604A (UniProt Q9ULM3); assay: co-IP; cotransfected cells, lysates fractionated into chromatin portions, then IP of tagged YEATS2 (anti-FLAG or anti-HA) and immunoblot
T1 sequence: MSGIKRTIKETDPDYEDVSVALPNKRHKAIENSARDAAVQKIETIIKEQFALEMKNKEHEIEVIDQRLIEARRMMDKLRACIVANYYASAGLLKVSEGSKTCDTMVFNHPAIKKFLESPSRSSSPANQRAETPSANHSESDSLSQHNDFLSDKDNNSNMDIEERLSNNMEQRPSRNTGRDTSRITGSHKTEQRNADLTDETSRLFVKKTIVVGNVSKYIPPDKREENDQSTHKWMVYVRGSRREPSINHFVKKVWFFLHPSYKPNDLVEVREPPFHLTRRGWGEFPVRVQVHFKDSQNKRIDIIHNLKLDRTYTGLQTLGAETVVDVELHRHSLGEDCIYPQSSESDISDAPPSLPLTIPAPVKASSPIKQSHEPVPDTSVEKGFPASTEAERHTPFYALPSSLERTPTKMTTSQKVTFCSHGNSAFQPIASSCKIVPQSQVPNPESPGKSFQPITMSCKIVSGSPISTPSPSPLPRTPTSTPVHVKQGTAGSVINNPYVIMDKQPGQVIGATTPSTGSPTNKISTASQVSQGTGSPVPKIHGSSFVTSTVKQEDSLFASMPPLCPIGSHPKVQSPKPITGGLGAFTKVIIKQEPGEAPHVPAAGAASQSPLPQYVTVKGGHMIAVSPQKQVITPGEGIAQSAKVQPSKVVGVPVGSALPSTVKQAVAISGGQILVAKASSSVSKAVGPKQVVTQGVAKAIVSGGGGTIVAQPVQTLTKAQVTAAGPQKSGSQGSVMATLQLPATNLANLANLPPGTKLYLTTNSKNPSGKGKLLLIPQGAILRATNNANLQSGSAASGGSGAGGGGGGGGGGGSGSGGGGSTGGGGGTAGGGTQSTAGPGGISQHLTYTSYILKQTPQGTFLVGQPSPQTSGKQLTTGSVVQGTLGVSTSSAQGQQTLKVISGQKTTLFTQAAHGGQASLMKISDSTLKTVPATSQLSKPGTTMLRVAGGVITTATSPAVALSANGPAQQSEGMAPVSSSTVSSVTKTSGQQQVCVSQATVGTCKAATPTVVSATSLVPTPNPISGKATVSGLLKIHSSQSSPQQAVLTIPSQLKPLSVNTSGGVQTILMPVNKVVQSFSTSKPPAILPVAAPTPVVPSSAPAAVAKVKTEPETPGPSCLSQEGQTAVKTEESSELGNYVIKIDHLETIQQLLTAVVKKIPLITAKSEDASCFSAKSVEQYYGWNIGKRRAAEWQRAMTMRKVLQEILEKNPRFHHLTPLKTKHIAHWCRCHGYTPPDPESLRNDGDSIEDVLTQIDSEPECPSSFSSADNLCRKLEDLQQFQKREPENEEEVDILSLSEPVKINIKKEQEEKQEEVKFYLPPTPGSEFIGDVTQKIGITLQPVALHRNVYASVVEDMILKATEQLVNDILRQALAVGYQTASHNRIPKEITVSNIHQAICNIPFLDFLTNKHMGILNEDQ

Chains of the proteins cited; added tags and fusions are not shown.
UniProt Q92830: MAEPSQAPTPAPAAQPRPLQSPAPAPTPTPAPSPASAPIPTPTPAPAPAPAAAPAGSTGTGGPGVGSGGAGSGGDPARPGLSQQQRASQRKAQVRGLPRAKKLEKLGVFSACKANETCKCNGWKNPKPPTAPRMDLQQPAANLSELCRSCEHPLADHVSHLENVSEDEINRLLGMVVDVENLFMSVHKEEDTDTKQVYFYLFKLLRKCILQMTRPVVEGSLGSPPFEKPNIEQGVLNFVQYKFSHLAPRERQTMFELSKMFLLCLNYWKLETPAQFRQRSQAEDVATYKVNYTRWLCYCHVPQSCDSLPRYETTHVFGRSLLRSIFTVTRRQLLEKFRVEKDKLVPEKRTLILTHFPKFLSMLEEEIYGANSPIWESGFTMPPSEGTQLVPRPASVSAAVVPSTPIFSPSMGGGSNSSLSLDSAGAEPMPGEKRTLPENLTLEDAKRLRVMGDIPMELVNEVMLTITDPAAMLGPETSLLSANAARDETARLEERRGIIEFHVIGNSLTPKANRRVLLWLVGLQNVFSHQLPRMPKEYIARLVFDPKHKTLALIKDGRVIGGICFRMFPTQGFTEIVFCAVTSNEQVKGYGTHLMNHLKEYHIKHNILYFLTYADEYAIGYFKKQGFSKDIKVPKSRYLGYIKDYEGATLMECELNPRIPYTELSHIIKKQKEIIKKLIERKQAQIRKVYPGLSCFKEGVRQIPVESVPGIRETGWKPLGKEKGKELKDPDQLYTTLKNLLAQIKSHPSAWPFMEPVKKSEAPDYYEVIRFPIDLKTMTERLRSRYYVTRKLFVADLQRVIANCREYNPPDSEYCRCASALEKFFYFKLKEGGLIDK
UniProt Q92831: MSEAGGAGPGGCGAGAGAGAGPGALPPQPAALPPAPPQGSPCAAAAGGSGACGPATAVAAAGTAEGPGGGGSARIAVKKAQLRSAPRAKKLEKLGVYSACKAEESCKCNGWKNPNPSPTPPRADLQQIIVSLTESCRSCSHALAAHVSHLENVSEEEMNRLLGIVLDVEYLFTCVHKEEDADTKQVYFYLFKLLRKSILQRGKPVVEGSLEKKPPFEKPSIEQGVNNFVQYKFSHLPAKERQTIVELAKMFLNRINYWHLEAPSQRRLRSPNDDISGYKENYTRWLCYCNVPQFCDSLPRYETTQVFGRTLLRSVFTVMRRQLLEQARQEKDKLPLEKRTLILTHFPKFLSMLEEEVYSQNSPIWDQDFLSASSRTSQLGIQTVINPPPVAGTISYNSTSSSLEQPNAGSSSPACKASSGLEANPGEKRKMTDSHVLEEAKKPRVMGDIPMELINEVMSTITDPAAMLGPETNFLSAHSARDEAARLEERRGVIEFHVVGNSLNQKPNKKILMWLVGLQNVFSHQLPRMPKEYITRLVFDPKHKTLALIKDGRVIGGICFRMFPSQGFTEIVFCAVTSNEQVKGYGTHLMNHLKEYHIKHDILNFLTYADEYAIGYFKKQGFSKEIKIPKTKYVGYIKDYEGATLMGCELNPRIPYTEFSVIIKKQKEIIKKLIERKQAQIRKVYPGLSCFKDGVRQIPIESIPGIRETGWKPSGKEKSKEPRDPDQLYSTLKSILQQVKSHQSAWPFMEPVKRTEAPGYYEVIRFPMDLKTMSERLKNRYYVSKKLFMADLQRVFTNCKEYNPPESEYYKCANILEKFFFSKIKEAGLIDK

HA-YEATS2-WT = biological target: T2, HA-YEATS2-WT (UniProt Q9ULM3); assay: as above
T2 sequence: T1 sequence with A604T

FLAG-YEATS2-T604A = biological target: T3, FLAG-YEATS2-T604A (UniProt Q9ULM3); assay: as above
T3 sequence: T1 sequence

FLAG-YEATS2 [1] = biological target: T4, FLAG-YEATS2 (UniProt Q9ULM3); assay: as above
T4 sequence: T1 sequence with A604T

[2] = biological target: T5, Yaf9, ENL, AF9, Taf14, Sas5 (YEATS) domain-containing 2 (YEATS2), endogenous (human (endogenous in 293T)) (UniProt Q9ULM3); assay: co-IP; endogenous proteins in 293T cell extracts; IP with anti-OGT and blot with anti-YEATS2, and the reverse (IP with anti-YEATS2)
T5 sequence: T1 sequence with A604T

FLAG-YEATS2 [3] = biological target: T4, FLAG-YEATS2; assay: co-IP; 293T cells cotransfected with HA-OGT and FLAG-YEATS2; IP with anti-FLAG antibody, immunoblot

- binding (HA-YEATS2-T604A): binds
- binding (HA-YEATS2-WT): binds
Molecule: FLAG-GCN5 (from UniProt Q92830 1-837) (enzyme)

- binding (HA-YEATS2-T604A): binds
- binding (HA-YEATS2-WT): binds
Molecule: FLAG-PCAF (from UniProt Q92831 1-832) (enzyme)

- binding (FLAG-YEATS2-T604A): binds
- binding (FLAG-YEATS2 [1]): binds
B1: HA-ZZZ3 (protein, UniProt Q8IYH5 1-903)
chain: MAASRSTRVTRSTVGLNGLDESFCGRTLRNRSIAHPEEISSNSQVRSRSPKKRPEPVPIQKGNNNGRTTDLKQQSTRESWVSPRKRGLSSSEKDNIERQAIENCERRQTEPVSPVLKRIKRCLRSEAPNSSEEDSPIKSDKESVEQRSTVVDNDADFQGTKRACRCLILDDCEKREIKKVNVSEEGPLNSAVVEEITGYLAVNGVDDSDSAVINCDDCQPDGNTKQNSIGSYVLQEKSVAENGDTDTQTSMFLDSRKEDSYIDHKVPCTDSQVQVKLEDHKIVTACLPVEHVNQLTTEPATGPFSETQSSLRDSEEEVDVVGDSSASKEQCKENTNNELDTSLESMPASGEPEPSPVLDCVSAQMMSLSEPQEHRYTLRTSPRRAAPTRGSPTKNSSPYRENGQFEENNLSPNETNATVSDNVSQSPTNPGEISQNEKGICCDSQNNGSEGVSKPPSEARLNIGHLPSAKESASQHITEEEDDDPDVYYFESDHVALKHNKDYQRLLQTIAVLEAQRSQAVQDLESLGRHQREALKNPIGFVEKLQKKADIGLPYPQRVVQLPEIVWDQYTHSLGNFEREFKNRKRHTRRVKLVFDKVGLPARPKSPLDPKKDGESLSYSMLPLSDGPEGSSSRPQMIRGRLCDDTKPETFNQLWTVEEQKKLEQLLIKYPPEEVESRRWQKIADELGNRTAKQVASRVQKYFIKLTKAGIPVPGRTPNLYIYSKKSSTSRRQHPLNKHLFKPSTFMTSHEPPVYMDEDDDRSCFHSHMNTAVEDASDDESIPIMYRNLPEYKELLQFKKLKKQKLQQMQAESGFVQHVGFKCDNCGIEPIQGVRWHCQDCPPEMSLDFCDSCSDCLHETDIHKEDHQLEPIYRSETFLDRDYCVSQGTSYNYLDPNYFPANR

- binding [2]: binds
B2: O-GlcNAc transferase (OGT), endogenous (enzyme, UniProt O15294 1-1046)
chain: MASSVGNVADSTEPTKRMLSFQGLAELAHREYQAGDFEAAERHCMQLWRQEPDNTGVLLLLSSIHFQCRRLDRSAHFSTLAIKQNPLLAEAYSNLGNVYKERGQLQEAIEHYRHALRLKPDFIDGYINLAAALVAAGDMEGAVQAYVSALQYNPDLYCVRSDLGNLLKALGRLEEAKACYLKAIETQPNFAVAWSNLGCVFNAQGEIWLAIHHFEKAVTLDPNFLDAYINLGNVLKEARIFDRAVAAYLRALSLSPNHAVVHGNLACVYYEQGLIDLAIDTYRRAIELQPHFPDAYCNLANALKEKGSVAEAEDCYNTALRLCPTHADSLNNLANIKREQGNIEEAVRLYRKALEVFPEFAAAHSNLASVLQQQGKLQEALMHYKEAIRISPTFADAYSNMGNTLKEMQDVQGALQCYTRAIQINPAFADAHSNLASIHKDSGNIPEAIASYRTALKLKPDFPDAYCNLAHCLQIVCDWTDYDERMKKLVSIVADQLEKNRLPSVHPHHSMLYPLSHGFRKAIAERHGNLCLDKINVLHKPPYEHPKDLKLSDGRLRVGYVSSDFGNHPTSHLMQSIPGMHNPDKFEVFCYALSPDDGTNFRVKVMAEANHFIDLSQIPCNGKAADRIHQDGIHILVNMNGYTKGARNELFALRPAPIQAMWLGYPGTSGALFMDYIITDQETSPAEVAEQYSEKLAYMPHTFFIGDHANMFPHLKKKAVIDFKSNGHIYDNRIVLNGIDLKAFLDSLPDVKIVKMKCPDGGDNADSSNTALNMPVIPMNTIAEAVIEMINRGQIQITINGFSISNGLATTQINNKAATGEEVPRTIIVTTRSQYGLPEDAIVYCNFNQLYKIDPSTLQMWANILKRVPNSVLWLLRFPAVGEPNIQQYAQNMGLPQNRIIFSPVAPKEEHVRRGQLADVCLDTPLCNGHTTGMDVLWAGTPMVTMPGETLASRVAASQLTCLGCLELIAKNRQEYEDIAVKLGTDLEYLKKVRGKVWKQRISSPLFNTKQYTMELERLYLQMWEHYAAGNKPDHMIKPVEVTESA

- binding (FLAG-YEATS2 [3]): binds
B3: HA-OGT (enzyme, UniProt O15294 1-1046)
chain: B2 chain

From publication PMC12275198
